Construct, isoform or probe ends are uncertain for at least one entry. The comparison behind a weaker result is the experiment's own reference, which may not be listed here.

The test system of the data set is NagR. Nature of the data set: EMSA. The note with it: 10 mM Tris-HCl pH 7.5, 50 mM KCl, 5 mM MgCl2, 2.25 mM DTT, 0.125% Tween 20, 2.5% glycerol, 1 nM probe, 0-2000 nM NagR, 60 min, room temperature, 6% gel, 0.5x TBE, recombinant protein, protein details: N-terminal His (pET-49b-derived), label: 5' IRD700 (strand 1). (A gel shift assay detects complexes by their altered migration in electrophoresis.)

Setting [1] is: EC50 range given for the high-affinity probes as a group, individual value only in Fig. 5.
[2] abbreviates: EC50 range given for the two moderate probes, individual value only in Fig. 5.

As to “TCGCCTTGGGTGAATTTGTTAAGATAGTTGTCAATAGTCGGATGCACAC (double strand) [nagK probe]”, under setting [1], the binding result is reported as “binds”.
On to “GCGCGACTCACATATATGTTAAGAATGTTGACGAACTCCATCTCCCGTG (double strand) [hmoA3 probe]”, for which the binding result under setting [2] is “binds”.
For the sequence “TCGTGGTGCCACATATTGTTAGGCATGTTGACAAAATGCTGCGAAGAGG (double strand) [hmoA2 probe]”, the binding result under setting [1] was “binds”.
As for “GCCGATATTTCATATATGTTAAGGACGTTGACAAAATATCTCCCGAGAC (double strand) [hmoA probe]”, the binding result (0.1 mM GlcNAc, effect lost, 25 nM NagR) is reported as “binds”; the binding result (0.1 mM GlcNAc-1P, effect lost, 25 nM NagR) is on record as “binds”; the binding result (1 mM GlcNAc-6P, effect lost, 25 nM NagR) is “binds”; the binding result (10 mM GlcN-6P, complex not disrupted, 25 nM NagR) is “binds”; the binding result (10 mM GlcNAc, complex disrupted, effector EC50 0.33 +/- 0.05 mM, 25 nM NagR) was “binds more weakly”; the binding result (10 mM GlcNAc-1P, complex disrupted, effector EC50 0.49 +/- 0.06 mM, 25 nM NagR) was “binds more weakly”. The binding result (10 mM GlcNAc-6P, complex disrupted, 25 nM NagR) was “binds more weakly” and the binding result under setting [1] is reported as “binds”.
In the case of “TCACAAGGTCCAAAATTGTTAGTATCATTAACAAATAGCGAATCGCCAA (double strand) [nagB_I probe]”, the binding result under setting [1] is listed as “binds”.
As for “CGGGACGCGCGGTAATTGTTAGTTGGGTTGACAATAAAAGAGCAAAGGC (double strand) [gltA probe]”, the binding result under setting [2] is recorded as “binds”.

The values are drawn from publication PMC9599254, “Human Milk Oligosaccharide Utilization in Intestinal Bifidobacteria Is Governed by Global Transcriptional Regulator NagR” (mSystems, 2022).
